# Data reported in publication PMC6280653.
# T1: 6xHis-Rab22A^WT (mouse) (UniProt P35285)
# T1 sequence: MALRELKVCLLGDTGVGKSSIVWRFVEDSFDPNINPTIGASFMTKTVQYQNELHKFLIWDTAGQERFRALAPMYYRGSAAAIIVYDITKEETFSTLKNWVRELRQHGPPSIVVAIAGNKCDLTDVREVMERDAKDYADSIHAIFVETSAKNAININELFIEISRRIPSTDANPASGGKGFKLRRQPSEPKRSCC
# Legend:
# 6xHis-Rab22A^WT (mouse) = biological target: T1, 6xHis-Rab22A^WT (mouse); experiment: pull-down; His-Rab22A^WT on Ni-NTA beads incubated with melanocyte lysate in RIPA buffer, 6-8 h, 4°C; immunoblot; the beads of Fig 5E were preloaded with nucleotide, here GTPγS (1 mM); only the target purified
# [1] = biological target: stalk domain of His-tagged KIF13A (human); experiment: pull-down; His-KIF13A domains (motor, stalk-1, stalk-2, tail) on Ni-NTA beads incubated with HeLa cell lysate in RIPA buffer, 6-8 h, 4°C; immunoblot; only the target purified
binding (6xHis-Rab22A^WT (mouse)),binding [1],Molecule
no binding,,"Rab7, of melanocytes (mouse (endogenous in melanocytes))"
,binds,"Rab22A (protein, UniProt Q9UL26 1-194) MALRELKVCLLGDTGVGKSSIVWRFVEDSFDPNINPTIGASFMTKTVQYQNELHKFLIWDTAGQERFRALAPMYYRGSAAAIIVYDITKEETFSTLKNWVKELRQHGPPNIVVAIAGNKCDLIDVREVMERDAKDYADSIHAIFVETSAKNAININELFIEISRRIPSTDANLPSGGKGFKLRRQPSEPKRSCC"

# No constants are given. Whether binding was seen depends on the method and setting. In cells and extracts the contact can be indirect. For some assays here: Binding calls can cover weak binding; strength is not graded here. For some assays here: Sequences can lack the tags named with a protein.
